Assay results as given in article PMC3554661.
Changes are numbered by the printed parent chain. No constants are given. Whether binding was seen depends on the method and setting. In cells and extracts the contact can be indirect. Some results given as binding are weak or reduced against the parent protein; the word gives no strength. Where a sequence is shown, tags or fusion partners need not be part of it.

Amino acid sequences for entries named in this document (tags omitted). Residues count along the entry.
UniProt Q07917, residues 363-598: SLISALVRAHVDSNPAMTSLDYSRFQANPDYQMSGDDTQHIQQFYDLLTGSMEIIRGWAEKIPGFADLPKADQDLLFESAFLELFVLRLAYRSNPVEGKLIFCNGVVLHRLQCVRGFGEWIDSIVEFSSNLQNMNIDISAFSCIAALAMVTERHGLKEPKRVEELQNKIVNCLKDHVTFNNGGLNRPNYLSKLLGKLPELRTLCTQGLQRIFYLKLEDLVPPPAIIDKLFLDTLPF

How the values were obtained:
Experiment in all cases: pull-down; GST-PIASγ fusion proteins or GST alone (1.5 µg) bound to glutathione-agarose, incubated with whole extracts of COS-1 cells transfected with Myc-Nurr1 363-598 for 1 h at 4°C; extensive washing; immunoblot with anti-Myc (9E10); only the target purified
[1] = biological target: T1, GST-PIASγ_(1–158) (human) (UniProt Q8N2W9)
T1 sequence: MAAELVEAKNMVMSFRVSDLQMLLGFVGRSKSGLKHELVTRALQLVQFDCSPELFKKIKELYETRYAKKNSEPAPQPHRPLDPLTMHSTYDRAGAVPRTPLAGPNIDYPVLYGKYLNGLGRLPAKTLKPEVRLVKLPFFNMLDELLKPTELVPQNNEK

[2] = biological target: T2, GST-PIASγmut1 (human) (UniProt Q8N2W9)
T2 sequence: T1 sequence with L20A, L23A, L24A

[3] = biological target: T3, GST-PIASγmut2 (human) (UniProt Q8N2W9)
T3 sequence: T1 sequence with L142A, L145A, L146A

Myc-Nurr1_(363–598) (from UniProt Q07917 363-598) (domain or fragment)
binding [1]: binds | binding [2]: no binding (tested: 1.5 µg GST fusion on beads) | binding [3]: binds
